The assay concerns the target T1, Pro-AEP (human) (UniProt Q99538).
T1 sequence: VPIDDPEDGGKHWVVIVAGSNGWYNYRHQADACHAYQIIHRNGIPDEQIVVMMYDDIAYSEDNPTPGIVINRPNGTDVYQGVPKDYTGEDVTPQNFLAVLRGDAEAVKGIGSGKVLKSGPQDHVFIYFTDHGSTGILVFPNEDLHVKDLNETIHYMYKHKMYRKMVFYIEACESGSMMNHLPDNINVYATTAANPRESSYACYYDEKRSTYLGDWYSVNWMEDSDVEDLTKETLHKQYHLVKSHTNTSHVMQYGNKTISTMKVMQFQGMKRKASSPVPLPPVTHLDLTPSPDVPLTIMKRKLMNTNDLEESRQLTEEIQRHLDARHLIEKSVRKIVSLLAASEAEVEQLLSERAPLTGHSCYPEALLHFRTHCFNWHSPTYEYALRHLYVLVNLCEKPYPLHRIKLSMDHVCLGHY
Put plainly: co-IP; U2OS cells treated with cisplatin.

Protein sequences, listed by entry. Tags and fused reporters are not part of them.
UniProt Q13283: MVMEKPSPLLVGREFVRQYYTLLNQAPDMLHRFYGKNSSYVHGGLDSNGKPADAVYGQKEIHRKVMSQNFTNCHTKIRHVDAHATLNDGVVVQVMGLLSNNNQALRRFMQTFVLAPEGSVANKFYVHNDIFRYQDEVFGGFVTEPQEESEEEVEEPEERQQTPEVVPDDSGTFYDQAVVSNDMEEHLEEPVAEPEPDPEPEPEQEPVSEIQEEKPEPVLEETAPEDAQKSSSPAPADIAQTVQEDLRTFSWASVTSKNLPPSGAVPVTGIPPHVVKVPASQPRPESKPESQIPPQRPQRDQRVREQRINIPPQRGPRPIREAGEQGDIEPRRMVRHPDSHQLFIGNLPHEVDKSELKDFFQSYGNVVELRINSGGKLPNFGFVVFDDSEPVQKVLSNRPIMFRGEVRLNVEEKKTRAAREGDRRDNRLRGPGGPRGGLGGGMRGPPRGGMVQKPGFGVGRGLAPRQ

Results are given in words; binding and its absence hold for the method and conditions named. In cells and extracts the contact can be indirect. Some binding calls cover weakened binding; strength is not graded here.

Regarding “Ras-GTPase-activating protein (GAP)-binding protein 1 (G3BP1) (from UniProt Q13283 1-466)”, the binding entry is “binds”.
